Test results reported in the supplement of paper PMC10849652.
This is one part of the list.

Chains of the proteins cited; added tags and fusions are not shown. Lines headed by an entry give the natural chain unless they say otherwise; changes in a name come on top.
UniProt Q7L4E1: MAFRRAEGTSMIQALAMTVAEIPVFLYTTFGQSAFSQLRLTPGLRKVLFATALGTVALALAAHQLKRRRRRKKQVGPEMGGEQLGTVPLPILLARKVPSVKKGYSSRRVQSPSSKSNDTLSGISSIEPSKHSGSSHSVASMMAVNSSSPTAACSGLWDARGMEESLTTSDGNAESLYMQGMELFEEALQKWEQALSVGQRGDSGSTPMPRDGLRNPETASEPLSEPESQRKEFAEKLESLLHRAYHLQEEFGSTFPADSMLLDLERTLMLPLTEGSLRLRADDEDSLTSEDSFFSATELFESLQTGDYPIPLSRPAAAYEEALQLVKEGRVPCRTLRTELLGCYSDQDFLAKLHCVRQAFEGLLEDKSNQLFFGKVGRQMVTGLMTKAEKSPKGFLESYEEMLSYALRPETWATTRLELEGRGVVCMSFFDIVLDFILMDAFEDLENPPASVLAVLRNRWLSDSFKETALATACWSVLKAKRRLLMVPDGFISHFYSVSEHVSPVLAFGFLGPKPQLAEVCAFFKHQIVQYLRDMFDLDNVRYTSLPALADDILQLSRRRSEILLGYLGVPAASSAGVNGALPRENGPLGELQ
UniProt Q6NTE8: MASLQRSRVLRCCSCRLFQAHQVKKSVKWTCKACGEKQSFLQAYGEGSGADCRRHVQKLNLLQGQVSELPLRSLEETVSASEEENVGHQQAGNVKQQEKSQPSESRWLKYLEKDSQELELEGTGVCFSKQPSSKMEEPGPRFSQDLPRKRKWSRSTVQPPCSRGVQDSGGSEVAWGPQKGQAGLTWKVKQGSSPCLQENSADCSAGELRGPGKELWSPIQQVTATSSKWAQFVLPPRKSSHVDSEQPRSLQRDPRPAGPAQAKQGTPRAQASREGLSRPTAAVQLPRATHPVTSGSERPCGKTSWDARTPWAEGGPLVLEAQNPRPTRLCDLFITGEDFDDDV
UniProt Q8N4V1: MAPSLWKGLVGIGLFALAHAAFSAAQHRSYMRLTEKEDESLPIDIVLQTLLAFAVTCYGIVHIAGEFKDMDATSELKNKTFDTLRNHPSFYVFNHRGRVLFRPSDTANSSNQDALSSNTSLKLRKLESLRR
UniProt Q9UHC7: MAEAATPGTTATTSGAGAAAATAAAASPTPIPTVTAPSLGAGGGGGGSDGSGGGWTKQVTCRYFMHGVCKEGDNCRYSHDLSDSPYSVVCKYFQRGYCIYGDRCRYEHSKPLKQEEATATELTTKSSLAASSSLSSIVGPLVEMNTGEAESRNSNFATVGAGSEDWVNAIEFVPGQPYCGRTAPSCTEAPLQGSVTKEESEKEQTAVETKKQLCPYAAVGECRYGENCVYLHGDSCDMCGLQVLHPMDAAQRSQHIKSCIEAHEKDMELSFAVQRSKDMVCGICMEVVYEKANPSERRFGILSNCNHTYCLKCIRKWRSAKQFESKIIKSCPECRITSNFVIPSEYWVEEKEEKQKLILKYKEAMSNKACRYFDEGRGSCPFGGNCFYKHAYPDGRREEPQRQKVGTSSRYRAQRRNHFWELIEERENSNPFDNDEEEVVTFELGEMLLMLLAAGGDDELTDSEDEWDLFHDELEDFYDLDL
UniProt Q9UI43: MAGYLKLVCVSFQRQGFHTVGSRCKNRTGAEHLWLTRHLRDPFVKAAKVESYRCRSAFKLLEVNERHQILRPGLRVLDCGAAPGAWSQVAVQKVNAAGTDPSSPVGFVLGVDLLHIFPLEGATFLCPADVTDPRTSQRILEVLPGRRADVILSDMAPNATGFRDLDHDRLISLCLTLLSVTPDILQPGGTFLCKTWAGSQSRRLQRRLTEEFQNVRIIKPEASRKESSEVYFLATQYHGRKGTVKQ
UniProt P51511: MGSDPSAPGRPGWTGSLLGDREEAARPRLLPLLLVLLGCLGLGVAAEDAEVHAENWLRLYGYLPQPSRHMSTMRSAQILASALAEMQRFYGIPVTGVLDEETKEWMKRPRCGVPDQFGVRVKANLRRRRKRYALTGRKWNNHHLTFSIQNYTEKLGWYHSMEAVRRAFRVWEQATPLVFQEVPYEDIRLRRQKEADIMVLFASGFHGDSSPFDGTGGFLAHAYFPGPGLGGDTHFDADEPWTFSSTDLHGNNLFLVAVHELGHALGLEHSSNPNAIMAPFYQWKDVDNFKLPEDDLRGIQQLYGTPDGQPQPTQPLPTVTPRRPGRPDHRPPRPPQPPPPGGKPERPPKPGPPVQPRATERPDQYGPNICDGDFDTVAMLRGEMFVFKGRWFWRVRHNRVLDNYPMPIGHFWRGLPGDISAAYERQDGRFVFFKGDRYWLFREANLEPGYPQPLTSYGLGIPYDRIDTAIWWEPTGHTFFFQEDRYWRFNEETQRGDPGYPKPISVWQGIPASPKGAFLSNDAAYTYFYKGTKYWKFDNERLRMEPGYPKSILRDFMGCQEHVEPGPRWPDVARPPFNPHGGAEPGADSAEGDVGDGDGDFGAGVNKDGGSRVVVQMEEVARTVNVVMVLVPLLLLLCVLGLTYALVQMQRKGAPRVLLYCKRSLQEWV
UniProt P08473: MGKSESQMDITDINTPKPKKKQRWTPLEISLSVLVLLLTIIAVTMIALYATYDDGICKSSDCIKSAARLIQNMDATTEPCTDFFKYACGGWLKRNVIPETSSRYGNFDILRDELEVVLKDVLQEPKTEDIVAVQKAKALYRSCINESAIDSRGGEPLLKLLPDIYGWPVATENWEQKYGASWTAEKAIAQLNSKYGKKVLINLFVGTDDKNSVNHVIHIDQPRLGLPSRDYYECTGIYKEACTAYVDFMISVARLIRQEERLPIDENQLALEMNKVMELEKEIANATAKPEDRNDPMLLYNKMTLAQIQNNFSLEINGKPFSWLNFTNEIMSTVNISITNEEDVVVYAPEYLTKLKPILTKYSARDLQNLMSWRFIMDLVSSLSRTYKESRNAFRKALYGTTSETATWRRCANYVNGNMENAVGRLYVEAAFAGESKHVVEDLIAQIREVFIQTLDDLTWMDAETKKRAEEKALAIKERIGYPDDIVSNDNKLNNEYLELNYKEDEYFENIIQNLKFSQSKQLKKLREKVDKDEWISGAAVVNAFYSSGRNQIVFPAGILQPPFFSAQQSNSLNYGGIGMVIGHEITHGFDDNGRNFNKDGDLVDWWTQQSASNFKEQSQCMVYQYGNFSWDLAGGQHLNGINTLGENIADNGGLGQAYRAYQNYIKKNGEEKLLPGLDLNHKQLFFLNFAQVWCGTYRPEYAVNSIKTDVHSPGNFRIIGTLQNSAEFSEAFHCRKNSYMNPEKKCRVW
UniProt Q8TDZ2: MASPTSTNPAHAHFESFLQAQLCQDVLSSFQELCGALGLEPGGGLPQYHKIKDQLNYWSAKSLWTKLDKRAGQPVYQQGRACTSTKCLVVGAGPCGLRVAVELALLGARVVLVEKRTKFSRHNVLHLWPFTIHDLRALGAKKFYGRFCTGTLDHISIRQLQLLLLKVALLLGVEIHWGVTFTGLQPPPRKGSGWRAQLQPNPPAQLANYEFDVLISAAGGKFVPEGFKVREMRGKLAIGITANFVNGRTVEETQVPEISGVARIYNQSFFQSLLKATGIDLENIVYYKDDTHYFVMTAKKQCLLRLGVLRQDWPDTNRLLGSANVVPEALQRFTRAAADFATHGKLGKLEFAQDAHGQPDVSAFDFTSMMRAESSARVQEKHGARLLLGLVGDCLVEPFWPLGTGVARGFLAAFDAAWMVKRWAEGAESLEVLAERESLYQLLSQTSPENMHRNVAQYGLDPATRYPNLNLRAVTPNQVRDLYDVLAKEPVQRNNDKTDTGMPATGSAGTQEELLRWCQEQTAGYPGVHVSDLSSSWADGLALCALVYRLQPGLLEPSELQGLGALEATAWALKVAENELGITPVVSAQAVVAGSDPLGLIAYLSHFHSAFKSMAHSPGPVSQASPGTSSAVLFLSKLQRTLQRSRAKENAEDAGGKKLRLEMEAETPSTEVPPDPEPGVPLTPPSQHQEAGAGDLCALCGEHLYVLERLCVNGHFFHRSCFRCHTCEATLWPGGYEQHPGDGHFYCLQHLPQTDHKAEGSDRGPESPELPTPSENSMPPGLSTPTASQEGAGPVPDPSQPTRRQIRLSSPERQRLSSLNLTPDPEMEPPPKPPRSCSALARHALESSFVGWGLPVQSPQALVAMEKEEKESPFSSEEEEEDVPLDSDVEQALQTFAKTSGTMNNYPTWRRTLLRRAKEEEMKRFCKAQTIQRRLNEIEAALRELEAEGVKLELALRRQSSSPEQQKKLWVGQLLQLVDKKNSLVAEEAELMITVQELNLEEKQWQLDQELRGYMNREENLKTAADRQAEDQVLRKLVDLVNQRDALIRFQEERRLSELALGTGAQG
UniProt P40692: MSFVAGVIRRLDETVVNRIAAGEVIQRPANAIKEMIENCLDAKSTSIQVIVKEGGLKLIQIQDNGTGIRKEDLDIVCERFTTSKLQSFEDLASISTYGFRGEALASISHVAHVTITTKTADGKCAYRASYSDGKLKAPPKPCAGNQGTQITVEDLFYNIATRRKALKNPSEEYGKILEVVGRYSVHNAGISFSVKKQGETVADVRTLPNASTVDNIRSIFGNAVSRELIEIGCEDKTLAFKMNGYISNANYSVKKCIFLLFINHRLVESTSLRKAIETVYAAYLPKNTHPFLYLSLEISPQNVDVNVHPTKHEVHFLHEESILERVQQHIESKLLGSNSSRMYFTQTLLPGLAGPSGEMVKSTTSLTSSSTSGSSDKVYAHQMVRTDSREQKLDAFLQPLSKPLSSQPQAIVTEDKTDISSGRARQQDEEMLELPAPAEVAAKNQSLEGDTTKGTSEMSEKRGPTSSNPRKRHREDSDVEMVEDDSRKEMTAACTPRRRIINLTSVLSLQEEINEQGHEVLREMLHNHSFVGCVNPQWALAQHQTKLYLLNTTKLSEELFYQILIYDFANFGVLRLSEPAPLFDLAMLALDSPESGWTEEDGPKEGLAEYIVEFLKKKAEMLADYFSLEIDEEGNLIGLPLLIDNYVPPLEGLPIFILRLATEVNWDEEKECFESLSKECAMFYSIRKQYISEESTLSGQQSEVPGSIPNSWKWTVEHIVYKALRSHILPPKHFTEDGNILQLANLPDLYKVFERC
UniProt P39210: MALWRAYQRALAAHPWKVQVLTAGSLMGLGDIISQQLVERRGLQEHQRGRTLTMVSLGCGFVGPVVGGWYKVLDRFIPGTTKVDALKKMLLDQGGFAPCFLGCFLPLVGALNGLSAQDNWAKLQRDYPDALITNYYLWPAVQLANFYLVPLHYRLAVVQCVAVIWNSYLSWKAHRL
UniProt O96033: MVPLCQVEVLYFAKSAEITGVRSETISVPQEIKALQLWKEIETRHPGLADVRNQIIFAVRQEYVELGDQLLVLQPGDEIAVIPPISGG
UniProt Q99583: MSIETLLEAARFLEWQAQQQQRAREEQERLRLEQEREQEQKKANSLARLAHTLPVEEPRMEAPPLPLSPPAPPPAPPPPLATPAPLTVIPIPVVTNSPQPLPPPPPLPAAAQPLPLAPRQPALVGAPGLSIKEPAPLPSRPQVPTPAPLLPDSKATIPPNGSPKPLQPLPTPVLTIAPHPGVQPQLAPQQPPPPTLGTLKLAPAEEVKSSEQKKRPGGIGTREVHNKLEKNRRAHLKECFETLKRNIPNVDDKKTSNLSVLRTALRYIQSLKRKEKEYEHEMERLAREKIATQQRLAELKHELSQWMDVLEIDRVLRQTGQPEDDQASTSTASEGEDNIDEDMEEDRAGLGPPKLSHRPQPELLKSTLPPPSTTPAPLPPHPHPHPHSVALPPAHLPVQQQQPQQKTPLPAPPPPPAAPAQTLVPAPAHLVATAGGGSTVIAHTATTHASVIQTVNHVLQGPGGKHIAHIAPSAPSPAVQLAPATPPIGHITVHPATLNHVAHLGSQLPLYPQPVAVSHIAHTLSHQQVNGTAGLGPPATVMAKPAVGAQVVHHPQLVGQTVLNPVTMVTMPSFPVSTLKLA
UniProt Q6IN84: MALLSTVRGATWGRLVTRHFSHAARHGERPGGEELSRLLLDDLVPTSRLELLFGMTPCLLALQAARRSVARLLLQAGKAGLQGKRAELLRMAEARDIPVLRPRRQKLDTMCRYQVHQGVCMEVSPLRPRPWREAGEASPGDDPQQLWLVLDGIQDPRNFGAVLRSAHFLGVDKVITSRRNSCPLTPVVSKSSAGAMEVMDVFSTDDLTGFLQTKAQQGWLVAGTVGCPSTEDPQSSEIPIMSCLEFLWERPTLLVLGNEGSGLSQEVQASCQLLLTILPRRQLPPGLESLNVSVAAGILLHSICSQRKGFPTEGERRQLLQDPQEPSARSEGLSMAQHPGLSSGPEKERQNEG

Tests used:
Assay in all cases: log2 fold change, soluble protein after heating vs DMSO (PISA); higher = thermal stabilisation; K562 cells, 10 uM, 30 min; active = over 0.2 and 3.5 SD of the protein, either way, in both replicates (recomputed)
[1] = compound: Cn1cc(-c2ccc3c(c2)CCN3C(=O)Cc2cccc(C(F)(F)F)c2)c2c(N)ncnc21
In short: (§1)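 K562 cells at 2×10^6 cells/mL were given 10 μM compound for 30 min. Aliquots then went through 3 min of heating across 48°C-58°C, were pooled, and were extracted in PBS with 0.5% NP-40 at 4°C, and the supernatant after 21,000xg for 90 min was quantified by TMTpro 16plex LC-MS/MS with channel sums equalised. Thermal stability relative to control samples, from duplicates, is given as log2 fold change.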

[2] = compound: Cc1cccc(CC(=O)N2CCc3c2ccc(-c2cn(C)c4ncnc(N)c24)c3F)n1
In short: as §1

[3] = compound: Cc1cn(-c2cc(NC(=O)c3ccc(C)c(Nc4nccc(-c5cccnc5)n4)c3)cc(C(F)(F)F)c2)cn1 [nilotinib]
In short: as §1

[4] = compound: Cc1nc(Nc2n[nH]c3c2CN(C(=O)N[C@H](CN(C)C)c2ccccc2)C3(C)C)c2sccc2n1
In short: as §1

[5] = compound: Cc1ncc(-c2ccnc(Nc3ccc(S(C)(=O)=O)cc3)n2)n1C(C)C
In short: as §1

[6] = compound: Cn1cc(-c2ccc3nnc(C(F)(F)c4ccc5ncccc5c4)n3n2)cn1
In short: as §1

[7] = compound: Cn1cncc1[C@@](N)(c1ccc(Cl)cc1)c1ccc2c(c1)c(-c1cccc(Cl)c1)cc(=O)n2C [tipifarnib]
In short: as §1

[8] = compound: FC(F)(F)c1ccc(/C=C/c2nc(COc3ccc(CCCCn4ccnn4)cc3)co2)cc1 [mubritinib]
In short: as §1

[9] = compound: NC(=O)Nc1cc(-c2cccc(F)c2)sc1C(=O)N[C@H]1CCCNC1
In short: as §1

[10] = compound: NC1(c2ccc(-c3nc4ccn5c(=O)[nH]nc5c4cc3-c3ccccc3)cc2)CCC1
In short: as §1

[11] = compound: NCC(=O)Nc1ccc(-n2nc(C(F)(F)F)cc2-c2ccc3c(ccc4ccccc43)c2)cc1
In short: as §1

[12] = compound: Nc1ccccc1NC(=O)c1ccc(CNC(=O)OCc2cccnc2)cc1 [entinostat]
In short: as §1

[13] = compound: O=C(CCCCCCC(=O)Nc1ccccc1)NO [vorinostat]
In short: as §1

[14] = compound: O=C(CCCCCCNC(=O)c1cnc(N(c2ccccc2)c2ccccc2Cl)nc1)NO [citarinostat]
In short: as §1

[15] = compound: O=C(O)c1ccc2c(c1)nc(Nc1cccc(Cl)c1)c1ccncc12 [silmitasertib]
In short: as §1

[16] = compound: O=C1NC(=O)C(c2cnc3ccccn23)=C1c1cn2c3c(cc(F)cc13)CN(C(=O)N1CCCCC1)CC2
In short: as §1

[17] = compound: c1cc(OCCN2CCCCC2)cc(-c2n[nH]c3ccc(-c4nnc[nH]4)cc23)c1
In short: as §1

[18] = compound: Cc1ccc(NC(=O)c2ccc(CN3CC[C@H](N(C)C)C3)c(C(F)(F)F)c2)cc1Nc1nccc(-c2cncnc2)n1 [bafetinib]
In short: as §1

[19] = compound: Cc1nc(Nc2ncc(C(=O)Nc3c(C)cccc3Cl)s2)cc(N2CCN(CCO)CC2)n1 [dasatinib]
In short: as §1

[20] = compound: NC(=O)c1cnc(N[C@@H]2CCCC[C@@H]2N)nc1Nc1cccc(-n2nccn2)c1
In short: as §1

Measured: log2 fold change

MIGA2 (UniProt Q7L4E1)
inactive: [1] -0.074

MRNIP (UniProt Q6NTE8)
inactive: [2] -0.021 | [3] 0.084 | [4] 0.089 | [5] -0.107 | [6] -0.254 | [7] 0.037 | [8] 0.17 | [9] 0.022 | [10] 0.067 | [11] -0.049 | [12] -0.039 | [13] 0.012 | [14] 0.073 | [15] 0.094 | [16] 0.005 | [17] 0.003

MMGT1 (UniProt Q8N4V1)
inactive: [18] -0.028 | [3] -0.063 | [4] 0.12 | [19] 0.018 | [5] 0.029 | [1] 0.158 | [6] 0.106 | [7] -0.076 | [9] -0.031 | [20] -0.036 | [11] -0.029 | [12] -0.006 | [16] -0.019

MKRN1 (UniProt Q9UHC7)
inactive: [18] 0.054 | [2] -0.106 | [3] 0.017 | [4] -0.048 | [5] 0.027 | [1] -0.145 | [6] -0.074 | [7] 0.114 | [8] -0.087 | [10] 0.219 | [11] -0.055 | [13] 0.024 | [15] 0.057 | [16] 0.174

MRPL33 (UniProt O75394)
inactive: [18] 0.317 | [3] -0.128 | [4] 0.214 | [19] 0.033 | [5] 0.024 | [1] -0.16 | [6] 0.018 | [7] 0.098 | [8] -0.009 | [9] -0.085 | [20] 0 | [10] -0.051 | [11] 0.096 | [12] 0.219 | [14] 0.031 | [15] -0.06 | [16] -0.039 | [17] -0.083

MRM2 (UniProt Q9UI43)
inactive: [3] -0.069 | [4] -0.049 | [19] -0.381 | [5] 0.043 | [1] 0.164 | [7] -0.011 | [20] -0.202 | [11] -0.211

MMP15 (UniProt P51511)
inactive: [2] 0.121 | [13] -0.073

MINDY4 (UniProt Q4G0A6)
inactive: [6] -0.017 | [9] 0.033 | [12] 0.035

Quoted from the listing (two entries):
MRPL33 (UniProt O75394)
inactive: [18] 0.317 | [3] -0.128 | [4] 0.214 | [19] 0.033 | [5] 0.024 | [1] -0.16 | [6] 0.018 | [7] 0.098 | [8] -0.009 | [9] -0.085 | [20] 0 | [10] -0.051 | [11] 0.096 | [12] 0.219 | [14] 0.031 | [15] -0.06 | [16] -0.039 | [17] -0.083

MRM2 (UniProt Q9UI43)
inactive: [3] -0.069 | [4] -0.049 | [19] -0.381 | [5] 0.043 | [1] 0.164 | [7] -0.011 | [20] -0.202 | [11] -0.211

Following part

MME (UniProt P08473)
inactive: [18] -0.212 | [19] -0.325 | [8] 0.092 | [10] -0.036 | [11] -0.079 | [14] 0.062 | [15] 0.235 | [17] 0.081

MICAL1 isoform 4 (UniProt Q8TDZ2)
inactive: [3] -0.01 | [4] 0.016 | [5] 0.328 | [1] -0.074 | [6] -0.135 | [7] -0.076 | [8] 0.036 | [9] -0.032 | [20] -0.035 | [10] -0.236 | [11] -0.083 | [12] -0.001 | [15] 0.132 | [16] 0.129

MLH1 (UniProt P40692)
inactive: [18] -0.063 | [2] 0.035 | [19] -0.212 | [1] 0.005 | [7] 0.047 | [8] -0.073 | [20] 0.058 | [10] -0.102 | [13] -0.042 | [15] -0.017 | [16] -0.098

MPV17 (UniProt P39210)
inactive: [18] 0.061 | [2] -0.044 | [3] 0.051 | [4] 0.1 | [5] 0.02 | [1] 0.05 | [6] 0.204 | [7] 0.05 | [8] 0.029 | [9] -0.055 | [20] 0.041 | [10] -0.004 | [12] -0.101 | [13] -0.266 | [14] 0.014 | [15] -0.06 | [16] -0.049 | [17] 0.024

MOCS2 (UniProt O96033)
inactive: [2] 0.143 | [19] -0.063 | [1] 0.006 | [9] 0.101 | [20] 0.149 | [12] 0.043 | [13] 0.128 | [14] 0.031 | [17] -0.017

MRAS (UniProt O14807)
inactive: [18] -0.024 | [2] -0.2 | [3] -0.001 | [4] -0.005 | [5] -0.027 | [8] -0.058 | [10] -0.067 | [13] 0.121 | [14] -0.072 | [15] -0.058 | [17] -0.188

MNT (UniProt Q99583)
inactive: [18] 0.068 | [2] 0.064 | [3] 0.032 | [4] 0.087 | [5] 0.301 | [1] -0.318 | [6] 0.008 | [7] -0.195 | [8] 0.162 | [9] 0.051 | [20] -0.055 | [10] 0.03 | [11] 0.049 | [12] 0.052 | [13] -0.082 | [15] 0.218 | [16] -0.02

MRM1 (UniProt Q6IN84)
inactive: [18] 0.191 | [3] 0.025 | [4] 0.061 | [19] 0.172 | [5] -0.044 | [1] -0.272 | [6] 0.009 | [7] 0.151 | [8] -0.102 | [9] 0.037 | [20] -0.011 | [10] 0.188 | [11] 0.013 | [12] -0.024 | [14] -0.085 | [15] 0.118 | [16] 0.225 | [17] -0.064

MMAA (UniProt Q8IVH4)
inactive: [19] -0.012 | [1] 0.017 | [7] 0.09 | [9] 0.087 | [20] 0.011 | [12] 0.099 | [16] -0.064

MMRN1 (UniProt Q13201)
inactive: [19] 0.062 | [6] -0.026 | [9] -0.124 | [12] -0.08

MICA (UniProt Q29983)
inactive: [18] 0.174 | [2] 0.04 | [6] -0.085 | [7] 0.004 | [9] -0.088 | [20] 0.006 | [11] -0.033 | [12] 0.031 | [13] 0.031
